Measurements reported in PubChem BioAssay AID1259405 (NCATS, 2018).
Shown is one part, drawn at random, of about 50,000 reagents tested. About 4,000 of them (8%) count as active. 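Mouse siRNA library applied to hamster cells; one well for each siRNA.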

- Test: 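Knock-downs that lift recombinant protein yield in hamster ovary cells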 (primary screen)
- Cell system: Chinese hamster CHO-K1 ovary cells with stable secreted eGFP expression
- Knock-down reagent: single siRNA against mouse genes, 0.8 pmol siRNA per well (2 µl of 400 nM stock)
- Timing: 3 days
- Read-out: 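Percent of the per-plate non-targeting control median for intracellular GFP per well by laser scanning cytometry and for cell viability by ATP luminescence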
- Direction: GFP, % of control: higher = more GFP per well, higher productivity; viability (ATP), % of control: higher = more viable cells (more ATP)
- Call rule: 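Called active when intracellular GFP, relative to negative control, is at or above 120%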

The opening 4 entries, to show the layout:
target gene,PubChem SID,"GFP, % of control","viability (ATP), % of control",call
Psmb8,SID363547483,122,121,active
Psmb8,SID363558252,54.6,46,inactive
Psmb8,SID363560010,71.2,85.2,inactive
Adgre1 (adhesion G protein-coupled receptor E1),SID363571389,115,87.5,inactive

Main list, repeating the preview:
target gene,PubChem SID,"GFP, % of control","viability (ATP), % of control",call
Psmb8,SID363547483,122,121,active
Psmb8,SID363558252,54.6,46,inactive
Psmb8,SID363560010,71.2,85.2,inactive
Adgre1 (adhesion G protein-coupled receptor E1),SID363571389,115,87.5,inactive
Adgre1 (adhesion G protein-coupled receptor E1),SID363571741,55.5,71.5,inactive
Adgre1 (adhesion G protein-coupled receptor E1),SID363572093,80.4,78.5,inactive
Ptp4a3 (protein tyrosine phosphatase 4a3),SID363547751,82.6,71.9,inactive
Ptp4a3 (protein tyrosine phosphatase 4a3),SID363558520,83.7,87.7,inactive
Ptp4a3 (protein tyrosine phosphatase 4a3),SID363560278,33.2,67.5,inactive
Samtor (S-adenosylmethionine sensor upstream of mTORC1),SID363546799,111,63.1,inactive
Samtor (S-adenosylmethionine sensor upstream of mTORC1),SID363548555,66.9,80.2,inactive
Samtor (S-adenosylmethionine sensor upstream of mTORC1),SID363560733,58.6,67.7,inactive
Mcm3 (minichromosome maintenance complex component 3),SID363569974,96.8,85.3,inactive
Mcm3 (minichromosome maintenance complex component 3),SID363577014,39,70.1,inactive
Mcm3 (minichromosome maintenance complex component 3),SID363578422,57.5,96.5,inactive
Dsc3 (desmocollin 3),SID363573184,71.6,63.4,inactive
Dsc3 (desmocollin 3),SID363588423,84.3,79.7,inactive
"Prl7c1 (prolactin family 7, subfamily c, member 1)",SID363541895,65.3,99.3,inactive
"Prl7c1 (prolactin family 7, subfamily c, member 1)",SID363553487,64.6,64,inactive
"Prl7c1 (prolactin family 7, subfamily c, member 1)",SID363566811,48.5,71.8,inactive
Tmc6 (transmembrane channel-like gene family 6),SID363547769,87.2,70.9,inactive
Tmc6 (transmembrane channel-like gene family 6),SID363558538,55.1,55.9,inactive
Tmc6 (transmembrane channel-like gene family 6),SID363560296,106,127,inactive
Gpc2 (glypican 2 cerebroglycan),SID363553826,48.6,53.3,inactive
Gpc2 (glypican 2 cerebroglycan),SID363561783,123,74.1,active
Gpc2 (glypican 2 cerebroglycan),SID363565521,108,54.4,inactive
"Cryba1 (crystallin, beta A1)",SID363550129,86.9,75.2,inactive
"Cryba1 (crystallin, beta A1)",SID363564638,212,96.3,active
"Cryba1 (crystallin, beta A1)",SID363588183,102,104,inactive
"Cryba1 (crystallin, beta A1)",SID363589716,83.6,93.9,inactive
"Cryba1 (crystallin, beta A1)",SID363589717,103,96.7,inactive
"Cryba1 (crystallin, beta A1)",SID363589718,118,92.6,inactive
Psg29 (pregnancy-specific beta-1-glycoprotein 29),SID363555169,54.8,55.2,inactive
Psg29 (pregnancy-specific beta-1-glycoprotein 29),SID363563830,55,64.6,inactive
Psg29 (pregnancy-specific beta-1-glycoprotein 29),SID363587376,81.1,98.3,inactive
